Measured values taken from paper PMC9758056.
These are yes or no findings as the source states them, for the method shown.

Molecular target: LRRK1^RCKW (LRRK1 residues 631 to 2015) (human) (UniProt Q38SD2)
Test: cryo-EM structure; LRRK1^RCKW alone, 2–6 μM, 20 mM HEPES pH 7.4, 80 mM NaCl, 0.5 mM TCEP, 2.5 mM MgCl2, 20 μM GDP, no ATP; 5.8 Å map of a monomer; both purified

B1: LRRK1^RCKW (LRRK1 residues 631 to 2015) (domain or fragment, UniProt Q38SD2 631-2015)
chain: RKAEKCKLMKMIIVGPPRQGKSTLLEILQTGRAPQVVHGEATIRTTKWELQRPAGSRAKVESVEFNVWDIGGPASMATVNQCFFTDKALYVVVWNLALGEEAVANLQFWLLNIEAKAPNAVVLVVGTHLDLIEAKFRVERIATLRAYVLALCRSPSGSRATGFPDITFKHLHEISCKSLEGQEGLRQLIFHVTCSMKDVGSTIGCQRLAGRLIPRSYLSLQEAVLAEQQRRSRDDDVQYLTDRQLEQLVEQTPDNDIKDYEDLQSAISFLIETGTLLHFPDTSHGLRNLYFLDPIWLSECLQRIFNIKGSRSVAKNGVIRAEDLRMLLVGTGFTQQTEEQYFQFLAKFEIALPVANDSYLLPHLLPSKPGLDTHGMRHPTANTIQRVFKMSFVPVGFWQRFIARMLISLAEMDLQLFENKKNTKSRNRKVTIYSFTGNQRNRCSTFRVKRNQTIYWQEGLLVTFDGGYLSVESSDVNWKKKKSGGMKIVCQSEVRDFSAMAFITDHVNSLIDQWFPALTATESDGTPLMEQYVPCPVCETAWAQHTDPSEKSEDVQYFDMEDCVLTAIERDFISCPRHPDLPVPLQELVPELFMTDFPARLFLENSKLEHSEDEGSVLGQGGSGTVIYRARYQGQPVAVKRFHIKKFKNFANVPADTMLRHLRATDAMKNFSEFRQEASMLHALQHPCIVALIGISIHPLCFALELAPLSSLNTVLSENARDSSFIPLGHMLTQKIAYQIASGLAYLHKKNIIFCDLKSDNILVWSLDVKEHINIKLSDYGISRQSFHEGALGVEGTPGYQAPEIRPRIVYDEKVDMFSYGMVLYELLSGQRPALGHHQLQIAKKLSKGIRPVLGQPEEVQFRRLQALMMECWDTKPEKRPLALSVVSQMKDPTFATFMYELCCGKQTAFFSSQGQEYTVVFWDGKEESRNYTVVNTEKGLMEVQRMCCPGMKVSCQLQVQRSLWTATEDQKIYIYTLKGMCPLNTPQQALDTPAVVTCFLAVPVIKKNSYLVLAGLADGLVAVFPVVRGTPKDSCSYLCSHTANRSKFSIADEDARQNPYPVKAMEVVNSGSEVWYSNGPGLLVIDCASLEICRRLEPYMAPSMVTSVVCSSEGRGEEVVWCLDDKANSLVMYHSTTYQLCARYFCGVPSPLRDMFPVRPLDTEPPAASHTANPKVPEGDSIADVSIMYSEELGTQILIHQESLTDYCSMSSYSSSPPRQAARSPSSLPSSPASSSSVPFSTDCEDSDMLHTPGAASDRSEHDLTPMDGETFSQHLQAVKILAVRDLIWVPRRGGDVIVIGLEKDSGAQRGRVIAVLKARELTPHGVLVDAAVVAKDTVVCTFENENTEWCLAVWRGWGAREFDIFYQSYEELGRLEACTRKRR
B1 was tested, and the binding was “no binding (tested: 2–6 μM protein)”.
